For at least one entry, the source does not settle the construct or the ends of the probe. For some assays here: The comparison behind a weaker result is the experiment's own reference, which may not be listed here.
Key:
Test in all cases: pull-down (streptavidin beads, SDS-PAGE)
Settings in all cases: Protein + biotin-ISD 1 h at room temperature, then streptavidin beads 1 h in 50 mM Tris-HCl pH 7.5, 100 mM NaCl, 10% glycerol, 0.5% NP-40; three washes in the same buffer; recombinant protein; residues 161-522
[1] = molecular target: cGAS C404A (human) (UniProt Q8N884)
[2] = molecular target: cGAS C405A (human) (UniProt Q8N884)
[3] = molecular target: cGAS K384A (human) (UniProt Q8N884)
[4] = molecular target: cGAS K400E/K403E (human) (UniProt Q8N884)
[5] = molecular target: cGAS K407A (human) (UniProt Q8N884)
[6] = molecular target: cGAS K411A (human) (UniProt Q8N884)
[7] = molecular target: cGAS WT (human) (UniProt Q8N884)
[8] = molecular target: cGAS ΔZnF del390-405 (human) (UniProt Q8N884)

By UniProt entry, the sequences of proteins in these tests, tags left out. Residues count along the entry.
UniProt Q8N884, 161-522 C404A: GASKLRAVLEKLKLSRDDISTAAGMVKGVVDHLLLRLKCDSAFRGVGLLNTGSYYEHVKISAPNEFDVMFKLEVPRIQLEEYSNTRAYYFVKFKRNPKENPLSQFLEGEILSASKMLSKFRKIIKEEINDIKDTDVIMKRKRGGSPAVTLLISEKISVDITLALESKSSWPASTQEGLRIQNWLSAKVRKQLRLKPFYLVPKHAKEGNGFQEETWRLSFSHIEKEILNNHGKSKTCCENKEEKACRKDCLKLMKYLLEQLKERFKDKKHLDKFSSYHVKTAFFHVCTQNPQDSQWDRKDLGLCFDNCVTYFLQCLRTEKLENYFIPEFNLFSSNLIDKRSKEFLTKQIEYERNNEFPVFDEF
UniProt Q8N884, 161-522 C405A: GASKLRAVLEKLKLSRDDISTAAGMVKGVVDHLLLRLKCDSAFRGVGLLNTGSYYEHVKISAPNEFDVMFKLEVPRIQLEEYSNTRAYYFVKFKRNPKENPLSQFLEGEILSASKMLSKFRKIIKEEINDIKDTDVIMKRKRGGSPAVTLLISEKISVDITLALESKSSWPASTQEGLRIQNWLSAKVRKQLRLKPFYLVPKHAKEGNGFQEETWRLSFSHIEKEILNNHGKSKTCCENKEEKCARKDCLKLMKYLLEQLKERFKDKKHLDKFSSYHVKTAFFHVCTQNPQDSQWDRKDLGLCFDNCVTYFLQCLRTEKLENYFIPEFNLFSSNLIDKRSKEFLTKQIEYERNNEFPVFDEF
UniProt Q8N884, 161-522 K384A: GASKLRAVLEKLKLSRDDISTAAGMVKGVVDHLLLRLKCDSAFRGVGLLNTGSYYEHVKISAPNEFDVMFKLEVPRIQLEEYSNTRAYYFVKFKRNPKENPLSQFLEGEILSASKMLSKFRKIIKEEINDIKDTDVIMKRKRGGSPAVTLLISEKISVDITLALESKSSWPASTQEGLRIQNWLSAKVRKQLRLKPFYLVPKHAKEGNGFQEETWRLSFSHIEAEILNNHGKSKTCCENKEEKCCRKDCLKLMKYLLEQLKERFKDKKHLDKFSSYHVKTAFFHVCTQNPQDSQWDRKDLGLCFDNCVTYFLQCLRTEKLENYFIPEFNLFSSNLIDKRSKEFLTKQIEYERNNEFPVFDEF
UniProt Q8N884, 161-522 K400E/K403E: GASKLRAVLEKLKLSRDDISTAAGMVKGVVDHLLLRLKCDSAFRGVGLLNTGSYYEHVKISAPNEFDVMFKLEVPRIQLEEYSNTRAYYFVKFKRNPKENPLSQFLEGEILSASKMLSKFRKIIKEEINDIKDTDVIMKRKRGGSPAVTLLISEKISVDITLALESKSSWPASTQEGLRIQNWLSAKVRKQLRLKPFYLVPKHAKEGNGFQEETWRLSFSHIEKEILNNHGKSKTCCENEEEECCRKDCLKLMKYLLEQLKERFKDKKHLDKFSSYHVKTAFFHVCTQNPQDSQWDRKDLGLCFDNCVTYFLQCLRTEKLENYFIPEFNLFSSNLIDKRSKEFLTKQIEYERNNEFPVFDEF
UniProt Q8N884, 161-522 K407A: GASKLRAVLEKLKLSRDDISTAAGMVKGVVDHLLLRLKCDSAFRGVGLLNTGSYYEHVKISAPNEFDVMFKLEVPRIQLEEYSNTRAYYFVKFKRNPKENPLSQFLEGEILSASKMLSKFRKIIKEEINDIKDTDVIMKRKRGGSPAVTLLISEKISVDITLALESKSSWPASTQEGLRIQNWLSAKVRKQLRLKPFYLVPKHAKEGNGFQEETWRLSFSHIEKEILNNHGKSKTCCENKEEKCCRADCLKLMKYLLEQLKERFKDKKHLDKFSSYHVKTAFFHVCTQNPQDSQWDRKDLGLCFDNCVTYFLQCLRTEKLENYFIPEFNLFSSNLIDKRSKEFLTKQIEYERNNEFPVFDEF
UniProt Q8N884, 161-522 K411A: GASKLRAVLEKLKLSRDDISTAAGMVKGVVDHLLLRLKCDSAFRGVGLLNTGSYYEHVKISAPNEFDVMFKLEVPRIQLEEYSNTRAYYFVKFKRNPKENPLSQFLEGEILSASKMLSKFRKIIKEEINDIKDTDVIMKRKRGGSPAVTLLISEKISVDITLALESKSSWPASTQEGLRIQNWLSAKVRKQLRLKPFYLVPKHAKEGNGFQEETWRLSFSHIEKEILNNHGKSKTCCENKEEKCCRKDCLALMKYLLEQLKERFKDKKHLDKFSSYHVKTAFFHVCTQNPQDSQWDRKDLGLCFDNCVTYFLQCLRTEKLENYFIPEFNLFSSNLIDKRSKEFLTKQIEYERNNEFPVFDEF
UniProt Q8N884, 161-522: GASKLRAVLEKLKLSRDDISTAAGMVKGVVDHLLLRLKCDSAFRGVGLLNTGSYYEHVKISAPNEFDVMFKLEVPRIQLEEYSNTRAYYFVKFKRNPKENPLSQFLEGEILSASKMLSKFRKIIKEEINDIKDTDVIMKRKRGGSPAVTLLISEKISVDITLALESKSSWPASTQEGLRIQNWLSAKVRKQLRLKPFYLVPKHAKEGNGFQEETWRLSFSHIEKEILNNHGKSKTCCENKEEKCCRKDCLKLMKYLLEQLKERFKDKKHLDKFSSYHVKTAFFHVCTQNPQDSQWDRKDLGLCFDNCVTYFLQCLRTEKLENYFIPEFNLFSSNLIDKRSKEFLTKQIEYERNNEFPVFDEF

TACAGATCTACTAGTGATCTATGACTGATCTGTACATGATCTACA (double strand) [biotinylated ISD (interferon stimulatory DNA)]
binding result [1]: binds more weakly | binding result [2]: binds | binding result [3]: binds | binding result [4]: binds | binding result [5]: binds | binding result [6]: binds | binding result [7]: binds | binding result [8]: binds more weakly
